# Results from the supplement of paper PMC10849652.
# Sequences of proteins named here, by UniProt entry; tags and fusion partners are left off. A change or cut given only in a name is not applied to a line headed by its entry.
# UniProt Q53GQ0: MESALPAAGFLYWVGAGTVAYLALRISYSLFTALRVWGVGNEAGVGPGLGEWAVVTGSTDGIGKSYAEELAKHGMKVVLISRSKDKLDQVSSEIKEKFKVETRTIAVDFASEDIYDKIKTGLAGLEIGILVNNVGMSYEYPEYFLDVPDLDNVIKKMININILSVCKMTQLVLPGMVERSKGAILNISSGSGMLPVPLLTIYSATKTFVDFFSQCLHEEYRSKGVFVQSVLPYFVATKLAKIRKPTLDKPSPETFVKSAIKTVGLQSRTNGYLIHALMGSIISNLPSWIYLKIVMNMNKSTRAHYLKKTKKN
# UniProt P14625, whole entry, looked up: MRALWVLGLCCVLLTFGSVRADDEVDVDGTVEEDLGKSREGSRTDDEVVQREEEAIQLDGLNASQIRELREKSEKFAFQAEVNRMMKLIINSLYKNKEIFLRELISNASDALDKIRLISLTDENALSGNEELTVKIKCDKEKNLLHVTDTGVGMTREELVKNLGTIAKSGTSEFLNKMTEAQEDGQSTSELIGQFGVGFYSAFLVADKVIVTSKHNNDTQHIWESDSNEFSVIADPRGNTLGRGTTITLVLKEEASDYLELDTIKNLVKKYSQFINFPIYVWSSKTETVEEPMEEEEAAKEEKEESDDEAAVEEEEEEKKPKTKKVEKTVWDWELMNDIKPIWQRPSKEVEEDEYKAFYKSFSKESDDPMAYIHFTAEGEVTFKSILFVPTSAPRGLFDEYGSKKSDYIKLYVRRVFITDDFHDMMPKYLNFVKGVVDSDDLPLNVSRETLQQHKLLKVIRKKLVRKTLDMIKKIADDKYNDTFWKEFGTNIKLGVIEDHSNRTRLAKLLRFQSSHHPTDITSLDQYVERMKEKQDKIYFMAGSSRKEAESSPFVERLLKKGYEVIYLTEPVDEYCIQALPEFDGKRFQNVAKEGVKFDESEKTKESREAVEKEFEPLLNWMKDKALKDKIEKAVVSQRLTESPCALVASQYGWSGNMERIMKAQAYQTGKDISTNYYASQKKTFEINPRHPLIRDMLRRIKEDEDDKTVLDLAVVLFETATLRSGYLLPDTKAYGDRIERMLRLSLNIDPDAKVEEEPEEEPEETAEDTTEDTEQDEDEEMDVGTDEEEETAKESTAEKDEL
# UniProt Q9NX55: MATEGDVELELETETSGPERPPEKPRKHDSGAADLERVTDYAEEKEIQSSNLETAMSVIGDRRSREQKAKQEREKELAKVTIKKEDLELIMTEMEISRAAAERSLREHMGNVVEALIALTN
# UniProt Q9BTY7: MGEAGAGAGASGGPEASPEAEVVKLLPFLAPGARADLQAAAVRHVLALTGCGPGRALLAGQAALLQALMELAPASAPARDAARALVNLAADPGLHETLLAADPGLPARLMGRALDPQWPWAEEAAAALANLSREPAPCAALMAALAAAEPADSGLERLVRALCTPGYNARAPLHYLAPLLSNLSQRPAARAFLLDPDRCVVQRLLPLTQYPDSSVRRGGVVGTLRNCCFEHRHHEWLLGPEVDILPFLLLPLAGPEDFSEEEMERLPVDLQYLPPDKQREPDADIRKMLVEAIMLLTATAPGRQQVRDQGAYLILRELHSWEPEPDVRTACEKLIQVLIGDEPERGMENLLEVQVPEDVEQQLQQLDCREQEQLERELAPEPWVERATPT
# UniProt P49773: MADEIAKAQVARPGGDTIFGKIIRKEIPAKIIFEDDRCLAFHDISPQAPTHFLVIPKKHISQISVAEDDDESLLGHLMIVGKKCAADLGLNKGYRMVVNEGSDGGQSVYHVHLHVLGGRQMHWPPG
# UniProt P31937: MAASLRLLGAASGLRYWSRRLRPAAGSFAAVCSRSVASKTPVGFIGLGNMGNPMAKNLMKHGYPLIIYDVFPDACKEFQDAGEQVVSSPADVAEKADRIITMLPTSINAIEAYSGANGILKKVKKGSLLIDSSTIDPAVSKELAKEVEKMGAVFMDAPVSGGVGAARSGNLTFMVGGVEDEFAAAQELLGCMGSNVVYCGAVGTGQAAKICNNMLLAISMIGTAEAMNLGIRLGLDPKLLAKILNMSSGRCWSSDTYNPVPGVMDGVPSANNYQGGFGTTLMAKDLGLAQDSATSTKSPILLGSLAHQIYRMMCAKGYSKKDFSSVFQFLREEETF
# UniProt Q9BUJ2: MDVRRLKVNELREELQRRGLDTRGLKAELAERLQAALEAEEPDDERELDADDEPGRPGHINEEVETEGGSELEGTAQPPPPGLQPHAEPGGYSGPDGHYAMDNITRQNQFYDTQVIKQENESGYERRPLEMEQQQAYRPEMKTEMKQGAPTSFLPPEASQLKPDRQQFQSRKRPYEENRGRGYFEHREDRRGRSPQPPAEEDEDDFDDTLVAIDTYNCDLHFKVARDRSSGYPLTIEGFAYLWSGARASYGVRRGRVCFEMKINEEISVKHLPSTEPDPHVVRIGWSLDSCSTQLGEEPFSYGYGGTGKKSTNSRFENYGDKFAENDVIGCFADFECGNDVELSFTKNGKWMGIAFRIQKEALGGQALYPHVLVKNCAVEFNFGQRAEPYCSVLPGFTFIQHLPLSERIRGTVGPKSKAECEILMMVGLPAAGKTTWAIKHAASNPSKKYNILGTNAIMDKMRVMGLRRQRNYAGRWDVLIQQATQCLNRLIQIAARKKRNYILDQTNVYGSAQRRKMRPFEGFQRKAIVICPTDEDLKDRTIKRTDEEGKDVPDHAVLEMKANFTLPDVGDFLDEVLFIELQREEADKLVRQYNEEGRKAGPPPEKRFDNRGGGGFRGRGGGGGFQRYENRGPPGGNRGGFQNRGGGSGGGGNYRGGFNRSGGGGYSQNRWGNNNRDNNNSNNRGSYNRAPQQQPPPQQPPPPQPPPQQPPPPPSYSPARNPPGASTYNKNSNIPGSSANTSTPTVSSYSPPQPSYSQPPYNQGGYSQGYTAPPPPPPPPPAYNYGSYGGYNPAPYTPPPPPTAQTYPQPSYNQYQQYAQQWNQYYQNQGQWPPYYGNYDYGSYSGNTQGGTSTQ
# UniProt Q9BW72: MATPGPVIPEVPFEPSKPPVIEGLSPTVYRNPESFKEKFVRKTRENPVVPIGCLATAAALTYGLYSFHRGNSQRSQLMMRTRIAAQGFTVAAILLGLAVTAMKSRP
# UniProt P34932: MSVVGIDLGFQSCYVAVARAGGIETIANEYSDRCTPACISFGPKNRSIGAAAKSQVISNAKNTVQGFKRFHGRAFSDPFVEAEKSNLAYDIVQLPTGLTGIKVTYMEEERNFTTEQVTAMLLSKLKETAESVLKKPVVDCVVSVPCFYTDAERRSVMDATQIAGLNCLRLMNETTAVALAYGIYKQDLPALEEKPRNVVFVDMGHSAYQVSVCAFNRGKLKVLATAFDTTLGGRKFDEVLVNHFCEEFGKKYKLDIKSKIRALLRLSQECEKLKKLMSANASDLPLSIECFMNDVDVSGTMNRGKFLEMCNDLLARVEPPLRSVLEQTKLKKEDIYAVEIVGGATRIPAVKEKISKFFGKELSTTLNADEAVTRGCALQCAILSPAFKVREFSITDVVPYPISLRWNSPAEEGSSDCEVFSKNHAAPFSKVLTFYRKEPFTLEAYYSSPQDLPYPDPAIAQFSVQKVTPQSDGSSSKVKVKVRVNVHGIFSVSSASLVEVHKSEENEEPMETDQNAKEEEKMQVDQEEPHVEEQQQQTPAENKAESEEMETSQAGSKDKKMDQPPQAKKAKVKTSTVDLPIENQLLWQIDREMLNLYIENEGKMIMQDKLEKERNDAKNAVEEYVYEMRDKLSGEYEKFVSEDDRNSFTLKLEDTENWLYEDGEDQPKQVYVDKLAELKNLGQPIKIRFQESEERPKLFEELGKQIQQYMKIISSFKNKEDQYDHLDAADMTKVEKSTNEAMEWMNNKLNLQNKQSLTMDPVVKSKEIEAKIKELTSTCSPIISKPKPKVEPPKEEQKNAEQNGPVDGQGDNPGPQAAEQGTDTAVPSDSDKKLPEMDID
# UniProt P35914: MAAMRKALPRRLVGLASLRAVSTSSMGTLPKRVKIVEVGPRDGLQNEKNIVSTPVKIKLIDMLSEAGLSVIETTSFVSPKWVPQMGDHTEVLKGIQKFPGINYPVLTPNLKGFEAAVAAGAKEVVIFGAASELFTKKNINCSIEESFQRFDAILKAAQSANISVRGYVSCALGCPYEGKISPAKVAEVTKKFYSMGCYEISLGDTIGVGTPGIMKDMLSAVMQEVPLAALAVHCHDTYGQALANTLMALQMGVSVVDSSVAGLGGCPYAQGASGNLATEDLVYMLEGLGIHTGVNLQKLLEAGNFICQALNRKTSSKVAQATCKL
# UniProt Q86VS8: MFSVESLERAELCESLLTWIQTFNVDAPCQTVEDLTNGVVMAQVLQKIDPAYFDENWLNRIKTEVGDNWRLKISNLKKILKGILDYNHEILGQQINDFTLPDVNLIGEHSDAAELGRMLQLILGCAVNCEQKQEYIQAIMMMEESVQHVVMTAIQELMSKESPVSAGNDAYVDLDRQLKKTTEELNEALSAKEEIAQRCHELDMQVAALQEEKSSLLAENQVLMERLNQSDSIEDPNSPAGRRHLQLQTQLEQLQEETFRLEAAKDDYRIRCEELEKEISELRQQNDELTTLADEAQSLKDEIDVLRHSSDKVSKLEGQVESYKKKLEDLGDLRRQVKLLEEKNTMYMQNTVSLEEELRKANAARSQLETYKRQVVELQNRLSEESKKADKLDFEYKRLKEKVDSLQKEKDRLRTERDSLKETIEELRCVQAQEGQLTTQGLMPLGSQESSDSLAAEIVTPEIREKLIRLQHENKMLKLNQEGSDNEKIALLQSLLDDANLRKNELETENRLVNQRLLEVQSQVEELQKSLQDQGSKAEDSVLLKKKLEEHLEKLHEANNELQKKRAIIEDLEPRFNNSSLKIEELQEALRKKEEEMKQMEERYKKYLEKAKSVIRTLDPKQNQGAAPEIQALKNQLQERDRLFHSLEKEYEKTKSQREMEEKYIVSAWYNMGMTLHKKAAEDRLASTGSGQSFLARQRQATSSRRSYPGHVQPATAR
# UniProt P05114: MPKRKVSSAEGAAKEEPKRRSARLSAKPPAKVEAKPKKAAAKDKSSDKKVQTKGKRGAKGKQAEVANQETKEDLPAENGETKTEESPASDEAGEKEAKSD
# UniProt P11142, whole entry, looked up: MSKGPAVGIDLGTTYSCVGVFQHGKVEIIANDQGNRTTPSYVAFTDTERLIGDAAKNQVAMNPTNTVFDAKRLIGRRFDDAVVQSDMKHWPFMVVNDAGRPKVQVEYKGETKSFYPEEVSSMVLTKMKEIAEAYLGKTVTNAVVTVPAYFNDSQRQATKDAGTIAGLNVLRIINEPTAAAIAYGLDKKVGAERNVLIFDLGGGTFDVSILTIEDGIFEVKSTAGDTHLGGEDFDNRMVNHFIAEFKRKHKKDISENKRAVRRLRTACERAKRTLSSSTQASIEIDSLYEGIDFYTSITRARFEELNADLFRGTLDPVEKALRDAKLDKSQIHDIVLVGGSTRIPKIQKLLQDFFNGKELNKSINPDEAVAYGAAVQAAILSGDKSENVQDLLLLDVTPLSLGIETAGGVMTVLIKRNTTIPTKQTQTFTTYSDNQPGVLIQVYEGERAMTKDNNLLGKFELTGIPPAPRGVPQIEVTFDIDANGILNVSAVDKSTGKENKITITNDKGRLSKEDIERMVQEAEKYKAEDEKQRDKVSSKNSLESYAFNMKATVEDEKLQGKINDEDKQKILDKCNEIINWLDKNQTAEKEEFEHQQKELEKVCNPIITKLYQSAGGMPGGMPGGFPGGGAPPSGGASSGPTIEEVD
# UniProt P09429: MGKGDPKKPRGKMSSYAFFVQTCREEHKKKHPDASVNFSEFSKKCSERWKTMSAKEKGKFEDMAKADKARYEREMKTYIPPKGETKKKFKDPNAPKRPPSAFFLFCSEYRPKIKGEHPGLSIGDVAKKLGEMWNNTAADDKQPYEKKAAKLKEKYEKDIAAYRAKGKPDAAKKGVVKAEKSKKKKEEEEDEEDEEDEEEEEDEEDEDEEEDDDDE
# UniProt P11021: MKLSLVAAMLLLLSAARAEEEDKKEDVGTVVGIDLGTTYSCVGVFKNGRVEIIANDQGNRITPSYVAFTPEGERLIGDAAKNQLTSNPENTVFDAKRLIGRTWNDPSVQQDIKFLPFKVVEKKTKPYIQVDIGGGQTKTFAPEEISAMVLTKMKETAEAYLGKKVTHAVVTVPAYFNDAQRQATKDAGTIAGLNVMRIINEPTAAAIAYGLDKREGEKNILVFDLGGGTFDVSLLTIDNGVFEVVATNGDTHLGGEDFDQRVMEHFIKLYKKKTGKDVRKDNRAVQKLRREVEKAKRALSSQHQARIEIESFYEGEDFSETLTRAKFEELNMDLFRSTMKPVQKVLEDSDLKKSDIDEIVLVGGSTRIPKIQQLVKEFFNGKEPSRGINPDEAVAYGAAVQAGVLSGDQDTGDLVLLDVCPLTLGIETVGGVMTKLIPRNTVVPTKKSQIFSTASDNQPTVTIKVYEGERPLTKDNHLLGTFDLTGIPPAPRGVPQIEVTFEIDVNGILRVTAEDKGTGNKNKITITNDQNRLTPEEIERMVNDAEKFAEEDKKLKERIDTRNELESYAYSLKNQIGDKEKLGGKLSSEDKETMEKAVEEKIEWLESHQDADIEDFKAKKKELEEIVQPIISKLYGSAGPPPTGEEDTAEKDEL
# The other results are listed elsewhere or left out.
# Legend:
# Assay in all cases: log2 fold change, soluble protein after heating vs DMSO (PISA); higher = thermal stabilisation; K562 cells, 10 uM, 30 min; active = over 0.2 and 3.5 SD of the protein, either way, in both replicates (recomputed)
# [1] = compound: COC1=CC=C(C=C1)CN2C=CC3=C2C=C(C=C3)C(=O)NO
# Procedure, shortened: (§1)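 K562 cells (2×10^6 cells/mL) were treated with 10 μM compound for 30 min, and aliquots were heated for 3 min over 48°C-58°C. Pooled aliquots were extracted in PBS with 0.5% NP-40 at 4°C, and the supernatant after 21,000xg for 90 min was measured by TMTpro 16plex LC-MS/MS with channel sums equalised. Reported thermal stability, relative to control samples and from duplicates, is a log2 fold change.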
# [2] = compound: CON(C)C(=O)N1N=C(c2cc(F)ccc2F)S[C@@]1(CCCN)c1ccccc1 [filanesib]
# Procedure, shortened: as §1
# [3] = compound: CO[C@H]1C[C@@H]2CC[C@@H](C)[C@@](O)(O2)C(=O)C(=O)N2CCCC[C@H]2C(=O)O[C@H]([C@H](C)C[C@@H]2CC[C@H](n3cnnn3)[C@H](OC)C2)CC(=O)[C@H](C)/C=C(\C)[C@@H](O)[C@@H](OC)C(=O)[C@H](C)C[C@H](C)/C=C/C=C/C=C/1C [zotarolimus]
# Procedure, shortened: as §1
# [4] = compound: COc1cc(C(=O)O)ccc1NC(=O)[C@@H]1N[C@@H](CC(C)(C)C)[C@](C#N)(c2ccc(Cl)cc2F)[C@H]1c1cccc(Cl)c1F [idasanutlin]
# Procedure, shortened: as §1
# [5] = compound: COc1cc(Nc2ncc3c(n2)-c2ccc(Cl)cc2C(c2c(F)cccc2OC)=NC3)ccc1C(=O)O [alisertib]
# Procedure, shortened: as §1
# [6] = compound: COc1cc2nc(-c3cc(F)ccc3O)nc(N[C@@H]3CNC[C@H]3C(C)(C)O)c2cc1OC
# Procedure, shortened: as §1
# [7] = compound: COc1cc2ncnc(Nc3ccc(F)c(Cl)c3)c2cc1OCCCN1CCOCC1 [gefitinib]
# Procedure, shortened: as §1
# [8] = compound: COc1cccc2cc(-c3nc([C@H]4CC[C@H](C(=O)O)CC4)n4ncnc(N)c34)[nH]c12
# Procedure, shortened: as §1
# [9] = compound: CS(=O)(=O)CCNCc1ccc(-c2ccc3ncnc(Nc4ccc(OCc5cccc(F)c5)c(Cl)c4)c3c2)o1 [lapatinib]
# Procedure, shortened: as §1
# [10] = compound: CS(=O)(=O)N1CCN(Cc2cc3nc(-c4cccc5[nH]ncc45)nc(N4CCOCC4)c3s2)CC1 [pictilisib]
# Procedure, shortened: as §1
Target,log2 fold change [1],log2 fold change [2],log2 fold change [3],log2 fold change [4],log2 fold change [5],log2 fold change [6],log2 fold change [7],log2 fold change [8],log2 fold change [9],log2 fold change [10]
HSD17B12 (UniProt Q53GQ0),inactive: 0.069,inactive: -0.013,inactive: 0.03,inactive: -0.169,inactive: 0.003,inactive: 0.135,inactive: 0.103,inactive: 0.045,active: 0.369,inactive: 0.102
HMGN5 (UniProt P82970),inactive: 0.004,inactive: 0.002,inactive: -0.055,inactive: -0.046,inactive: -0.034,inactive: 0.016,inactive: 0.019,inactive: 0.031,inactive: -0.016,inactive: -0.018
HSD17B4 (UniProt P51659),inactive: 0.007,inactive: -0.033,inactive: 0.006,inactive: 0.01,inactive: -0.033,inactive: -0.002,inactive: 0.048,inactive: -0.001,inactive: 0.033,inactive: 0.017
HSP90B1 (UniProt P14625),inactive: -0.044,inactive: -0.025,inactive: 0,inactive: 0.011,inactive: -0.046,inactive: 0.01,inactive: 0.005,inactive: 0.004,inactive: -0.043,inactive: -0.057
HIC2 (UniProt Q96JB3),inactive: -0.067,inactive: 0.226,inactive: -0.012,inactive: 0.238,inactive: -0.057,inactive: -0.386,inactive: -0.073,inactive: -0.066,inactive: 0.207,inactive: -0.052
ICAM1 (UniProt P05362),inactive: -0.018,inactive: 0.132,inactive: -0.038,inactive: 0.042,inactive: 0.002,inactive: 0.08,inactive: 0.029,inactive: 0.104,inactive: -0.028,inactive: 0
HYPK (UniProt Q9NX55),inactive: -0.037,inactive: -0.038,inactive: 0.039,inactive: -0.041,inactive: -0.071,inactive: 0.007,inactive: -0.016,inactive: 0.022,inactive: -0.011,inactive: 0.041
HGH1 (UniProt Q9BTY7),inactive: -0.046,inactive: 0.104,inactive: 0.113,inactive: -0.086,inactive: -0.023,inactive: -0.006,inactive: 0.026,inactive: -0.109,inactive: 0.022,inactive: -0.193
HPCAL1 (UniProt P37235),inactive: -0.085,inactive: -0.128,inactive: -0.017,inactive: -0.062,inactive: 0.002,inactive: -0.012,inactive: -0.021,inactive: 0.06,inactive: -0.027,inactive: 0.013
HINT1 (UniProt P49773),inactive: 0.085,inactive: 0.021,inactive: 0.009,inactive: 0.027,inactive: 0.019,inactive: -0.068,inactive: 0.001,inactive: 0.018,inactive: -0.093,inactive: 0.083
HMGB2 (UniProt P26583),inactive: 0.212,inactive: -0.068,inactive: 0.012,inactive: -0.004,inactive: -0.056,inactive: -0.066,inactive: -0.015,inactive: 0.019,inactive: 0.041,inactive: 0.019
HIBADH (UniProt P31937),inactive: -0.018,inactive: -0.012,inactive: 0.009,inactive: -0.004,inactive: -0.04,inactive: 0.001,inactive: 0.009,inactive: 0.074,inactive: -0.004,inactive: -0.007
HOXB9 (UniProt P17482),inactive: 0.037,inactive: -0.002,inactive: 0,inactive: 0.014,inactive: -0.018,inactive: -0.005,inactive: 0.02,inactive: -0.068,inactive: -0.035,–
HNRNPUL1 (UniProt Q9BUJ2),inactive: 0.033,inactive: 0.047,inactive: -0.043,inactive: 0.03,inactive: 0.01,inactive: 0.023,inactive: -0.02,inactive: 0.009,inactive: 0.031,inactive: 0.014
HSPA6 (UniProt P17066),inactive: 0.027,inactive: 0.006,inactive: -0.022,inactive: -0.011,inactive: -0.077,inactive: 0.036,inactive: -0.004,inactive: -0.016,inactive: -0.062,inactive: 0.01
HMGCS1 (UniProt Q01581),inactive: 0.026,inactive: -0.034,inactive: -0.016,inactive: 0.047,inactive: -0.016,inactive: -0.017,inactive: 0.007,inactive: 0.018,inactive: 0.007,inactive: 0.03
HIGD2A (UniProt Q9BW72),inactive: -0.294,–,–,–,–,–,–,–,–,–
HNRNPH3 (UniProt P31942),inactive: -0.013,inactive: 0.286,inactive: 0.029,inactive: 0.203,inactive: -0.029,inactive: -0.023,inactive: 0.014,inactive: -0.157,inactive: -0.005,inactive: -0.09
HSPA4 (UniProt P34932),inactive: 0.026,inactive: -0.045,inactive: 0.031,inactive: -0.029,inactive: -0.046,inactive: -0.002,inactive: 0.03,inactive: -0.011,inactive: -0.009,inactive: 0.021
HSPA9 (UniProt P38646),inactive: -0.01,inactive: -0.071,inactive: -0.026,inactive: 0.008,inactive: -0.062,inactive: -0.015,inactive: 0.005,inactive: 0.01,inactive: -0.029,inactive: -0.018
HMGCL (UniProt P35914),inactive: -0.066,inactive: -0.064,inactive: 0.031,inactive: -0.024,inactive: -0.168,inactive: 0.006,inactive: -0.013,inactive: 0.031,inactive: -0.014,inactive: 0.01
HOOK3 (UniProt Q86VS8),inactive: -0.074,inactive: -0.108,inactive: 0.001,inactive: 0.036,inactive: 0.07,inactive: 0.014,inactive: -0.006,inactive: 0.018,inactive: 0.032,inactive: -0.021
HMGN1 (UniProt P05114),inactive: 0.01,inactive: 0.044,inactive: -0.034,inactive: 0.026,inactive: -0.04,inactive: 0.059,inactive: -0.07,inactive: 0.026,inactive: -0.09,inactive: -0.003
HNRNPR isoform 2 (UniProt O43390),inactive: -0.022,inactive: 0.196,inactive: -0.052,inactive: 0.2,inactive: -0.055,inactive: -0.051,inactive: -0.051,inactive: -0.051,inactive: 0.061,inactive: -0.042
HHEX (UniProt Q03014),inactive: 0.178,inactive: -0.007,inactive: -0.102,inactive: 0.035,inactive: 0.002,inactive: -0.04,inactive: -0.016,inactive: 0.053,inactive: -0.004,inactive: -0.012
HRAS (UniProt P01112),inactive: 0.008,inactive: -0.023,inactive: -0.049,inactive: 0.075,inactive: -0.157,inactive: -0.044,inactive: 0.021,inactive: -0.015,inactive: 0.076,inactive: 0.012
HSPA8 (UniProt P11142),inactive: -0.008,inactive: -0.035,inactive: 0.005,inactive: 0.018,inactive: -0.036,inactive: -0.004,inactive: 0.018,inactive: -0.012,inactive: -0.018,inactive: -0.039
HMGB1 (UniProt P09429),inactive: 0.011,inactive: -0.044,inactive: 0.032,inactive: 0.074,inactive: -0.046,inactive: -0.038,inactive: -0.007,inactive: 0.003,inactive: 0.002,inactive: -0.066
HSPA5 (UniProt P11021),inactive: -0.085,inactive: -0.038,inactive: -0.007,inactive: 0.013,inactive: -0.059,inactive: -0.022,inactive: 0.042,inactive: 0.006,inactive: -0.003,inactive: -0.035
HLCS (UniProt P50747),inactive: -0.012,inactive: -0.029,inactive: 0.002,inactive: -0.086,inactive: -0.09,inactive: 0.027,inactive: 0.045,inactive: -0.01,inactive: 0,inactive: 0.098

# Looked up above.
# For log2 fold change [8], HMGB1 (UniProt P09429) shows inactive: 0.003
# For log2 fold change [1], HRAS (UniProt P01112) shows inactive: 0.008

# Record cards, as listed above. Order of values: log2 fold change [1] | log2 fold change [2] | log2 fold change [3] | log2 fold change [4] | log2 fold change [5] | log2 fold change [6] | log2 fold change [7] | log2 fold change [8] | log2 fold change [9] | log2 fold change [10]
# HMGB1 (UniProt P09429) reads inactive: 0.011 | inactive: -0.044 | inactive: 0.032 | inactive: 0.074 | inactive: -0.046 | inactive: -0.038 | inactive: -0.007 | inactive: 0.003 | inactive: 0.002 | inactive: -0.066
# HSD17B4 (UniProt P51659) reads inactive: 0.007 | inactive: -0.033 | inactive: 0.006 | inactive: 0.01 | inactive: -0.033 | inactive: -0.002 | inactive: 0.048 | inactive: -0.001 | inactive: 0.033 | inactive: 0.017
